According to patent publication US20170342160A1:
Results are given in words; binding and its absence hold for the method and conditions named. Some results given as binding are weak or reduced against the parent protein; the word gives no strength.

The chains behind the UniProt entries cited, without tags or fusion partners. Where a name states a change or a piece, a line headed by the entry shows the natural chain unless it says otherwise. A line that says so, or that is headed by a name, gives the form on record, which may keep a tag or linker.
recombinant extracellular domain of human 5T4 (soluble, produced in house) (Q13641, form named): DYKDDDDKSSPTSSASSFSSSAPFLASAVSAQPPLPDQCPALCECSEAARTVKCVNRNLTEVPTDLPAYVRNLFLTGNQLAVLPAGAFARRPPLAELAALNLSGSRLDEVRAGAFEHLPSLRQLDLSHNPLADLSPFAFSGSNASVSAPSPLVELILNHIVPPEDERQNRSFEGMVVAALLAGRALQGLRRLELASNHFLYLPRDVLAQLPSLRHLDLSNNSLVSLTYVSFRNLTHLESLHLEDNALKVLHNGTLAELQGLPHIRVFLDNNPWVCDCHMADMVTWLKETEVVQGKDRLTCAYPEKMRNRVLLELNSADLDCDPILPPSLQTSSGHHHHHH

Legend:
[1] = biological target: recombinant extracellular domain of human 5T4 (soluble, produced in house) (human) (UniProt Q13641); experiment: ELISA on recombinant 5T4 extracellular domain (FIG. 3C)
[2] = biological target: recombinant extracellular domain of human 5T4 (soluble, produced in house) (human) (UniProt Q13641); experiment: ELISA on recombinant 5T4 extracellular domain

Row | binding [1] | binding [2] | Binder
1 | binds | binds | dsFv(5T4), humanized VH(5T4) SEQ ID 6 and VL(5T4) SEQ ID 19 in dsFv format (scFv) scFv: QVQLVQSGAEVKKPGASVKVSCKASGYSFTSYYMHWVKQSPGQCLEWIGRINPNNGVTLYNQKFKDRVTMTRDTSISTAYMELSRLRSDDTAVYYCARSTMITNYVMDYWGQGTLVTVSSASGGGGSGGGGSGGGGSAGDIVMTQSPDSLAVSLGERATINCKASQSVSNDVAWYQQKPGQPPKLLIYYTSSRYAGVPDRFSGSGSGTDFTLTISSLQAEDVAVYYCQQDYNSPPTFGCGTKLEIK
2 | binds | binds | Fab(5T4), humanized VH(5T4) SEQ ID 6 and VL(5T4) SEQ ID 19 in Fab format (Fab, V domains shown) VH: QVQLVQSGAEVKKPGASVKVSCKASGYSFTSYYMHWVKQSPGQGLEWIGRINPNNGVTLYNQKFKDRVTMTRDTSISTAYMELSRLRSDDTAVYYCARSTMITNYVMDYWGQGTLVTVSS VL: DIVMTQSPDSLAVSLGERATINCKASQSVSNDVAWYQQKPGQPPKLLIYYTSSRYAGVPDRFSGSGSGTDFTLTISSLQAEDVAVYYCQQDYNSPPTFGGGTKLEIK
